# From PubChem BioAssay AID2685 (National Center for Advancing Translational Sciences (NCATS), 2010)
# The other results are listed elsewhere or left out. Further columns of the screen follow, without active or inactive calls. Most of these compounds were active or inconclusive in the main read-out, so they are no random draw. Potencies come from curve fits of mixed quality, noted in brackets.
# Assay: qHTS Assay for Lipid Storage Modulators in Drosophila S3 Cells;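 for cell number change: cells counted by Cell Tracker Red CMTPX staining in the red channel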
# Details: BODIPY lipid droplet fluorescence, 18-24 h; for cell number change: measured here: cell count max response, cells fed with added oleic acid
# How it was run: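 Drosophila S3 cells loaded with oleic acid (400 uM, as added) and compounds at several concentrations; lipid droplets imaged by 488-nm laser-scanning cytometry, 500–530 nm intensity and object ratio to cell channel. Percent activity normalized to 20 uM Triacsin C.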
# [1] = measured here: lipid fluorescence (Fed channel) AC50, cells fed with added oleic acid
# [2] = measured here: cell number channel AC50, cells fed with added oleic acid
Structure (SMILES),cell number change [%],AC50 [1],AC50 [2]
Clc1ccc(Oc2nc(N3CCOCC3)nc(N3CCOCC3)n2)cc1,-19.8,"0.92 µM [falling, full curve]",–
CN(C)c1oc(-c2ccc(OCc3ccc(Cl)cc3)cc2)nc1C#N,7.57,"3.26 µM [rising, partial curve]",–
N#Cc1c(-c2ccco2)nc(NCC2CCCO2)[nH]c1=O (configuration not stated),-12,–,–
COc1ccc(CCNC(=O)CN(C)S(=O)(=O)c2ccc(OC)cc2)cc1,-6.45,–,–
FC(F)(F)c1ccccc1NC(=S)Nn1cnnc1,19.9,–,–
COc1cc(Nc2cccc[n+]2C)cc(OC)c1OC,-29.2,–,"0.92 µM [falling, partial curve, poor fit]"
Cc1ccccc1Nc1nc(CSc2nnnn2-c2ccccc2)cs1,55.5,"0.517 µM [rising, full curve]","0.366 µM [rising, full curve]"
COc1cc(/C=N/O)cc(Br)c1OCc1ccc(Cl)cc1,-5.16,–,"0.231 µM [falling, full curve, poor fit]"
Cc1c(-c2ccccc2)[n+](=O)c2c(n1[O-])CCCCC2,16.7,–,"3.26 µM [rising, single point]"
COc1ccc(/C=C/C(=O)c2ccccn2)cc1,-2.87,"0.82 µM [falling, full curve]",–
COc1ccccc1N1CCN(/N=C/c2ccc(Cl)c([N+](=O)[O-])c2)CC1,-34.5,"0.58 µM [rising, single point]","23.1 µM [falling, partial curve, poor fit]"
CCCNC(=O)c1ccccc1NC(=O)c1ccc2c(=O)n3c(nc2c1)CCC3,-7.64,"16.4 µM [falling, single point]",–
O=C(Cn1nc(-c2ccc(Cl)cc2)ccc1=O)NCC1CCCO1 (configuration not stated),38.4,–,"29.1 µM [rising, partial curve, poor fit]"
COc1ccccc1N1CCN(Cc2ccco2)CC1,-18.8,–,"0.13 µM [falling, full curve, poor fit]"
CCc1ccc[n+](-c2nc3ccccc3nc2C(=C=[N-])C#N)c1,–,"0.651 µM [falling, single point]",–
Cc1cnn(-c2nc(-c3ccccc3)cc(-c3ccccc3)n2)c1,-28.4,"1.84 µM [falling, partial curve, poor fit]",–
CC(OC(=O)c1ccccc1O)C(=O)Nc1cccc(Cl)c1 (configuration not stated),31.5,–,–
CC1CCCN(S(=O)(=O)c2ccc(S(=O)(=O)N3CCCN(Cc4ccccc4)C3)cc2)C1 (configuration not stated),-8.17,–,–
CN1CCN(S(=O)(=O)c2cccc(S(=O)(=O)c3cccc(S(=O)(=O)N4CCN(C)CC4)c3)c2)CC1,-74.6,"4.61 µM [falling, partial curve]","7.31 µM [falling, partial curve, poor fit]"
CCN(CC)CC(=O)Nc1ccc(-c2ccc(NC(=O)CN(CC)CC)c(OC)c2)cc1OC,–,"0.146 µM [falling, full curve, poor fit]",–
O=C(C[n+]1cccc(CNC(=O)c2ccc(OC(F)F)cc2)c1)c1ccccc1,18.5,"11.2 µM [rising, single point]",–

# 4 entries drawn at random from the list so far, as already listed:
Structure (SMILES),cell number change [%],AC50 [1],AC50 [2]
COc1cc(Nc2cccc[n+]2C)cc(OC)c1OC,-29.2,–,"0.92 µM [falling, partial curve, poor fit]"
CN(C)c1oc(-c2ccc(OCc3ccc(Cl)cc3)cc2)nc1C#N,7.57,"3.26 µM [rising, partial curve]",–
CCc1ccc[n+](-c2nc3ccccc3nc2C(=C=[N-])C#N)c1,–,"0.651 µM [falling, single point]",–
COc1ccccc1N1CCN(Cc2ccco2)CC1,-18.8,–,"0.13 µM [falling, full curve, poor fit]"

# Next part

Structure (SMILES),cell number change [%],AC50 [1],AC50 [2]
CN1CCN(CCCNC(=O)c2cc3c(-c4ccc(Cl)cc4)nn(C)c3s2)CC1,31.8,"16.4 µM [falling, single point]","29.1 µM [rising, single point]"
CCC(=O)c1ccc(OCC(=O)Nc2ccc(N3CCOCC3)cc2N2CCOCC2)cc1,-47.3,"1.64 µM [falling, full curve]","1.64 µM [falling, full curve]"
O=C(Nc1cccc(S(=O)(=O)N2CCCCCC2)c1)C1CCN(C(=O)c2ccc(Cl)cc2)CC1,12.9,"1.16 µM [rising, full curve]",–
Cc1cc(C)cc(N(CC(=O)NCc2cccnc2)S(C)(=O)=O)c1,8.99,"29.1 µM [rising, single point]",–
CCn1c(=O)cc(OCC(=O)NCCCN2CCN(c3cccc(Cl)c3)CC2)c2ccccc21,-3.03,"5.8 µM [rising, single point]",–
CC(C)Oc1ccc(S(=O)(=O)N2CCCCC2)cc1NC(=O)C1CCCC1,-1.38,"11.6 µM [rising, single point]",–
Cn1c(=O)c2c(ncn2CC(O)CNc2ccc(Cl)cc2)n(C)c1=O (configuration not stated),19.6,–,"0.00517 µM [rising, full curve, poor fit]"
CCC1=Nc2cc(C(=O)N3CCCCC3)ccc2Sc2ccc(C)cc21,23.3,"29.1 µM [rising, single point]",–
O=C(c1cccs1)N(c1ccc(Cl)cc1)C1C=CS(=O)(=O)C1 (configuration not stated),-2.16,"0.146 µM [falling, full curve, poor fit]","0.146 µM [falling, single point]"
CC(=O)c1c(N2CCN(c3cccc(Cl)c3)CC2)nc(=S)n(-c2ccccc2)c1C,-2.42,–,–
O=C(COC(=O)c1ccccc1F)c1ccc(-n2nncc2-c2ccco2)cc1,-5.05,–,–
COc1cccc(C(=O)N(Cc2cc3cc(C)ccc3[nH]c2=O)CC2CCCO2)c1 (configuration not stated),–,"1.84 µM [rising, partial curve]","0.517 µM [rising, full curve]"
CCOc1ccc(NC(=O)C2=NN(c3ccccc3)C(=O)CC2)cc1S(=O)(=O)N1CCCCC1,4.33,"0.82 µM [rising, single point]",–
Cc1csc(NC(=O)CSc2nnc(-c3ccco3)n2C)n1,2.91,"0.00461 µM [rising, full curve, poor fit]",–
Oc1ccc(NC(=S)Nc2ccc(F)cc2)cc1,-7.69,"6.51 µM [falling, single point]",–
CC(C)(C)c1ccc(Oc2ccc(NC(=O)c3ccco3)cn2)cc1,-24.1,"29.1 µM [falling, single point]",–
COc1ccc(NC(=O)CCOc2ccc(C)cc2)cc1S(=O)(=O)N1CCOCC1,8.74,"0.116 µM [falling, full curve, poor fit]",–
CC(C)(C)c1ccc(OCc2ccc(C(=O)N3CCOCC3)o2)cc1,-47.4,"18.4 µM [falling, single point]","20.6 µM [falling, single point]"
O=C(CSc1ccccc1)Nc1ccc2c(c1)OCO2,15.9,–,–
COc1ccc(OC)c(C(=O)NC2CC(C)(C)Cc3c2cnn3-c2ccccc2)c1 (configuration not stated),1.79,–,–
Cc1ccc(-n2cc(CN(C)Cc3ncc[nH]3)c(-c3cccc(C)c3)n2)cc1,-32.4,"20.6 µM [falling, partial curve]","29.1 µM [falling, single point]"

Structure (SMILES),cell number change [%],AC50 [1],AC50 [2]
COc1ccc(C(=O)Nc2ccc(S(=O)(=O)Nc3nccc(C)n3)cc2)cc1OC,49.8,–,"9.2 µM [rising, partial curve, poor fit]"
CC1CC(C)(C)CC2(C1)NC(=O)N(CC(=O)N1CCN(Cc3ccc(C#N)cc3)CC1)C2=O (configuration not stated),-54.5,–,"1.84 µM [falling, full curve]"
CCC(=O)c1ccccc1OCC(=O)Nc1c(C)cccc1C,–,"3.26 µM [falling, single point]",–
O=C(N[C@@H](c1ccccc1)[C@@H]1C[C@H]1C(=O)O)OCc1ccccc1,–,"29.1 µM [rising, single point]",–
O=C(CSCC(=O)N1CCCc2ccccc21)Nc1nc(-c2ccccc2)cs1,-46.5,"9.2 µM [falling, partial curve, poor fit]","29.1 µM [falling, single point]"
O=C1N=C(N2CCCCC2)SC1=C1CCCC1,8.63,–,"4.11 µM [rising, single point]"
COc1ccc(CCNC(=O)C2CCC(=O)N(C3CC3)C2)c(OC)c1 (configuration not stated),-15.8,"6.51 µM [falling, single point]",–
Cc1cccc(C(=O)N[C@H](C(=O)Nc2nc3ccccc3[nH]2)C(C)C)c1,-49.5,–,"29.1 µM [falling, single point]"
COc1ccccc1NC(=O)c1c(O)c2ccccc2[nH]c1=O,21.5,"7.31 µM [rising, partial curve, poor fit]",–
CC1CC(c2ccccc2)NS(=O)(=O)O1 (configuration not stated),28.4,"0.651 µM [rising, full curve]","0.517 µM [rising, full curve, poor fit]"
COC(=O)CNC(c1ccccc1)c1cc(Br)ccc1N (configuration not stated),7.25,–,–
CCOC(=O)c1ccc(NC(=O)c2cc(OC)c(OC)c(OC)c2Br)cc1,2.22,"0.0651 µM [rising, full curve, poor fit]",–
CCOc1ccc(CCNC(=O)CS(=O)(=O)Cc2nc(-c3cccc(OC)c3)oc2C)cc1,31.7,"6.51 µM [falling, single point]","18.4 µM [rising, single point]"
CCCNC(=O)CN(C)CC(=O)Nc1ccccc1C#N,–,–,"1.3 µM [rising, full curve]"
COc1cc(/C(C)=N/NC(=O)c2nnn(-c3nonc3N)c2-c2cccs2)ccc1O,-1.18,"0.13 µM [rising, full curve, poor fit]",–
C=CCn1c(P(=O)(O)c2ccccc2)nc2ccccc21,-35.4,–,"14.6 µM [falling, partial curve]"
CC(NS(=O)(=O)c1ccccc1)C(=O)NCc1ccco1 (configuration not stated),7.52,–,–
Cc1ccc(C(=O)Nc2ccc(O)c(C(=O)O)c2)o1,7.65,–,–
Cc1c(Cl)cn2c(=O)cc(CN3CCN(c4ccc(F)cc4)CC3)nc2c1Cl,34,"1.3 µM [rising, full curve, poor fit]","1.16 µM [rising, partial curve]"
